Laboratory results reported in doi:10.1101/2024.11.19.624272.
No constants are given. Whether binding was seen depends on the method and setting. Binding seen in cells or lysates may run through a third protein. Here binding means that the protein was enriched with, or labelled near, the bait; the list need not be complete.

Chains of the proteins cited; added tags and fusions are not shown. Lines headed by an entry give the natural chain unless they say otherwise; changes in a name come on top. Residues count along the entry.
UniProt O00481, residues 30-513: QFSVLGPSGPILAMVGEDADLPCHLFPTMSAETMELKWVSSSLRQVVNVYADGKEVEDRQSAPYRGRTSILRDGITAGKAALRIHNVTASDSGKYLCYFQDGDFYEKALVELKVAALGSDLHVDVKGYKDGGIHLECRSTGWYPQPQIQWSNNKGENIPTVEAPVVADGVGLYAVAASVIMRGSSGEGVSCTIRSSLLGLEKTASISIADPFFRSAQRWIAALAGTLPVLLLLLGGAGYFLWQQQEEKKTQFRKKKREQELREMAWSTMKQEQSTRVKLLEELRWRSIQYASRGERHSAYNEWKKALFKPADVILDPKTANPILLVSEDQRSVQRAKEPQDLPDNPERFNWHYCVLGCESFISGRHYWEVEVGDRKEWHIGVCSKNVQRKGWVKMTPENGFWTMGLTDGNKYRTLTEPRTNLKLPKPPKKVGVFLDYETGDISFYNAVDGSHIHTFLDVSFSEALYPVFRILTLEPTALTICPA
UniProt Q5VZK9: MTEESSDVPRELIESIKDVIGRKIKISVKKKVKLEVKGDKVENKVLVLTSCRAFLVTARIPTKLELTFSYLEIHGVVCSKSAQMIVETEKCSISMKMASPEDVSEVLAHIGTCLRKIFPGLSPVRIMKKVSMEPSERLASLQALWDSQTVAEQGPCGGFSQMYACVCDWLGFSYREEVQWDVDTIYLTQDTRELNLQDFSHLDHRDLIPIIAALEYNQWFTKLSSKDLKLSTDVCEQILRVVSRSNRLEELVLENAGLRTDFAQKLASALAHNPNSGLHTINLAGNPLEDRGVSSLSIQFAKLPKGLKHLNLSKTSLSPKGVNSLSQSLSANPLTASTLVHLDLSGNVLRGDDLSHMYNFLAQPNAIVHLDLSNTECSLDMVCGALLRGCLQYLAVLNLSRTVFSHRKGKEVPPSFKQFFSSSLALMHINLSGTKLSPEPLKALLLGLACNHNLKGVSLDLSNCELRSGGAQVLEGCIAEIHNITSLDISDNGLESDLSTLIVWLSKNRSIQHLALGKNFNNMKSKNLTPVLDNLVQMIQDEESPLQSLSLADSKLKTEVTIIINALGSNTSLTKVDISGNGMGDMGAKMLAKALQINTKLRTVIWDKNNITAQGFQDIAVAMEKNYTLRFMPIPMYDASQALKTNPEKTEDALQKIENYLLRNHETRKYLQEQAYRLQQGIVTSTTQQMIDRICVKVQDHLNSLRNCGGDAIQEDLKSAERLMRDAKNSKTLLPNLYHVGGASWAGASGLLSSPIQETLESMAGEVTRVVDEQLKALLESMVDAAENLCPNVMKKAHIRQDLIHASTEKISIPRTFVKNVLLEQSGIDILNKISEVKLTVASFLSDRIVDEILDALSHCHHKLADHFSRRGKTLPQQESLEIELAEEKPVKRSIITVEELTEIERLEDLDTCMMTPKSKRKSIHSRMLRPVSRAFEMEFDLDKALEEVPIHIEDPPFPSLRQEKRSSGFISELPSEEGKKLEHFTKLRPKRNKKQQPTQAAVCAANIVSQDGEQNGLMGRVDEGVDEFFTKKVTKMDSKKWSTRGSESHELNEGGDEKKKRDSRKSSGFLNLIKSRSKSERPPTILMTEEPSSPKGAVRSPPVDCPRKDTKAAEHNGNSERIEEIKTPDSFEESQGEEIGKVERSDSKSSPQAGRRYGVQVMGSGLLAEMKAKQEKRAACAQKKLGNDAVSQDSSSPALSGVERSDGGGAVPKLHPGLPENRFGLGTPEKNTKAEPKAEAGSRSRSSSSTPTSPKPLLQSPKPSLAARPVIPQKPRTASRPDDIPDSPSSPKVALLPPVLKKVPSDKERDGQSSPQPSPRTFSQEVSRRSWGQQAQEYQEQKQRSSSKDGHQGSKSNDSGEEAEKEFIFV
UniProt Q9C0D5: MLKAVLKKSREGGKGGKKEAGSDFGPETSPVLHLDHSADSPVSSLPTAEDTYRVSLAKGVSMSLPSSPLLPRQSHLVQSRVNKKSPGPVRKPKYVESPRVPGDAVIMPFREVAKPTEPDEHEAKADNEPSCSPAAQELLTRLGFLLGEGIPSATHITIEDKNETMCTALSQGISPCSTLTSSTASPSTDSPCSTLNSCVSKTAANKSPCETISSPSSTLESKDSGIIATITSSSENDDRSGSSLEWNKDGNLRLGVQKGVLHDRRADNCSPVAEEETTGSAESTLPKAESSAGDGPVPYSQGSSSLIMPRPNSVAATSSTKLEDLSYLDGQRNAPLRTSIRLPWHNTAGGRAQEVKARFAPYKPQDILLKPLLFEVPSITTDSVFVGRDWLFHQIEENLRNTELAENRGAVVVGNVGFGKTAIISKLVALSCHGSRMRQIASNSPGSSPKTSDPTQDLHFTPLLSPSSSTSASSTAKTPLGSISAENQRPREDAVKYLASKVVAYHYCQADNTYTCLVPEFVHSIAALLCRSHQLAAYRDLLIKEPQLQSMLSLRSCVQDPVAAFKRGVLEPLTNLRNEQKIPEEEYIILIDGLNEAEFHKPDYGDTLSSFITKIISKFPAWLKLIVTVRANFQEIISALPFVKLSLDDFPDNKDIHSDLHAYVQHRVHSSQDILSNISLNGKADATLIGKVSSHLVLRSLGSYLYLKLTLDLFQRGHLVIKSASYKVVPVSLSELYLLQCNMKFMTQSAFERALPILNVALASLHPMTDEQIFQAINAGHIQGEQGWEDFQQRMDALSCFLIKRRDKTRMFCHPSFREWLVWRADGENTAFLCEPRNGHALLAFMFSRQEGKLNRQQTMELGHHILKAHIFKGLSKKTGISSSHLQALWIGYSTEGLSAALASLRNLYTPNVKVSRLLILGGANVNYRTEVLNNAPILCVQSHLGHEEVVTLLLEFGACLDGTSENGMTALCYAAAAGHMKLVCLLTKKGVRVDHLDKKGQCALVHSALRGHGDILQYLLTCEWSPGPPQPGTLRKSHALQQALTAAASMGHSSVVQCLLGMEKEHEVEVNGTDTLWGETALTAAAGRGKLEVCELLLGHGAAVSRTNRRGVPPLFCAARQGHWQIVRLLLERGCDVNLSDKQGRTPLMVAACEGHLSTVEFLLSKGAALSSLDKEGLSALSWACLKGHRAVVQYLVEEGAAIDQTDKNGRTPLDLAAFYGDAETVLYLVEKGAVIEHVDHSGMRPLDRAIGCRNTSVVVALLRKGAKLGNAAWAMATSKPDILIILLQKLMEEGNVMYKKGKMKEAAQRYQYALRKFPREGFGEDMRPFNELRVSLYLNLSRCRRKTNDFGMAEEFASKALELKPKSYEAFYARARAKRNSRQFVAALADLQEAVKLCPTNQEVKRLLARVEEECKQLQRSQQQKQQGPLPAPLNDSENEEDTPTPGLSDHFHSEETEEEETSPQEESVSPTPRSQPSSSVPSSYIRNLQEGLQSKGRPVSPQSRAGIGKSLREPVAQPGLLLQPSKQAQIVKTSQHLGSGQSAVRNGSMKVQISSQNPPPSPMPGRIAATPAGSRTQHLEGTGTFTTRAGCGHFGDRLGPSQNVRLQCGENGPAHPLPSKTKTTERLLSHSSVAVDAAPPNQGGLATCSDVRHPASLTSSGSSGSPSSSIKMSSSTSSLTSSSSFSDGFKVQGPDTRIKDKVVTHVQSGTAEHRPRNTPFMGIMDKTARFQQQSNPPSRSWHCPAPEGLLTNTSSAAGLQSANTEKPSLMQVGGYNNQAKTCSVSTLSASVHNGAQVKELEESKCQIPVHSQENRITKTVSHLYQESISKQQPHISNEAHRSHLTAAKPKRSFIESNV
UniProt Q58EX2, residues 21-2172: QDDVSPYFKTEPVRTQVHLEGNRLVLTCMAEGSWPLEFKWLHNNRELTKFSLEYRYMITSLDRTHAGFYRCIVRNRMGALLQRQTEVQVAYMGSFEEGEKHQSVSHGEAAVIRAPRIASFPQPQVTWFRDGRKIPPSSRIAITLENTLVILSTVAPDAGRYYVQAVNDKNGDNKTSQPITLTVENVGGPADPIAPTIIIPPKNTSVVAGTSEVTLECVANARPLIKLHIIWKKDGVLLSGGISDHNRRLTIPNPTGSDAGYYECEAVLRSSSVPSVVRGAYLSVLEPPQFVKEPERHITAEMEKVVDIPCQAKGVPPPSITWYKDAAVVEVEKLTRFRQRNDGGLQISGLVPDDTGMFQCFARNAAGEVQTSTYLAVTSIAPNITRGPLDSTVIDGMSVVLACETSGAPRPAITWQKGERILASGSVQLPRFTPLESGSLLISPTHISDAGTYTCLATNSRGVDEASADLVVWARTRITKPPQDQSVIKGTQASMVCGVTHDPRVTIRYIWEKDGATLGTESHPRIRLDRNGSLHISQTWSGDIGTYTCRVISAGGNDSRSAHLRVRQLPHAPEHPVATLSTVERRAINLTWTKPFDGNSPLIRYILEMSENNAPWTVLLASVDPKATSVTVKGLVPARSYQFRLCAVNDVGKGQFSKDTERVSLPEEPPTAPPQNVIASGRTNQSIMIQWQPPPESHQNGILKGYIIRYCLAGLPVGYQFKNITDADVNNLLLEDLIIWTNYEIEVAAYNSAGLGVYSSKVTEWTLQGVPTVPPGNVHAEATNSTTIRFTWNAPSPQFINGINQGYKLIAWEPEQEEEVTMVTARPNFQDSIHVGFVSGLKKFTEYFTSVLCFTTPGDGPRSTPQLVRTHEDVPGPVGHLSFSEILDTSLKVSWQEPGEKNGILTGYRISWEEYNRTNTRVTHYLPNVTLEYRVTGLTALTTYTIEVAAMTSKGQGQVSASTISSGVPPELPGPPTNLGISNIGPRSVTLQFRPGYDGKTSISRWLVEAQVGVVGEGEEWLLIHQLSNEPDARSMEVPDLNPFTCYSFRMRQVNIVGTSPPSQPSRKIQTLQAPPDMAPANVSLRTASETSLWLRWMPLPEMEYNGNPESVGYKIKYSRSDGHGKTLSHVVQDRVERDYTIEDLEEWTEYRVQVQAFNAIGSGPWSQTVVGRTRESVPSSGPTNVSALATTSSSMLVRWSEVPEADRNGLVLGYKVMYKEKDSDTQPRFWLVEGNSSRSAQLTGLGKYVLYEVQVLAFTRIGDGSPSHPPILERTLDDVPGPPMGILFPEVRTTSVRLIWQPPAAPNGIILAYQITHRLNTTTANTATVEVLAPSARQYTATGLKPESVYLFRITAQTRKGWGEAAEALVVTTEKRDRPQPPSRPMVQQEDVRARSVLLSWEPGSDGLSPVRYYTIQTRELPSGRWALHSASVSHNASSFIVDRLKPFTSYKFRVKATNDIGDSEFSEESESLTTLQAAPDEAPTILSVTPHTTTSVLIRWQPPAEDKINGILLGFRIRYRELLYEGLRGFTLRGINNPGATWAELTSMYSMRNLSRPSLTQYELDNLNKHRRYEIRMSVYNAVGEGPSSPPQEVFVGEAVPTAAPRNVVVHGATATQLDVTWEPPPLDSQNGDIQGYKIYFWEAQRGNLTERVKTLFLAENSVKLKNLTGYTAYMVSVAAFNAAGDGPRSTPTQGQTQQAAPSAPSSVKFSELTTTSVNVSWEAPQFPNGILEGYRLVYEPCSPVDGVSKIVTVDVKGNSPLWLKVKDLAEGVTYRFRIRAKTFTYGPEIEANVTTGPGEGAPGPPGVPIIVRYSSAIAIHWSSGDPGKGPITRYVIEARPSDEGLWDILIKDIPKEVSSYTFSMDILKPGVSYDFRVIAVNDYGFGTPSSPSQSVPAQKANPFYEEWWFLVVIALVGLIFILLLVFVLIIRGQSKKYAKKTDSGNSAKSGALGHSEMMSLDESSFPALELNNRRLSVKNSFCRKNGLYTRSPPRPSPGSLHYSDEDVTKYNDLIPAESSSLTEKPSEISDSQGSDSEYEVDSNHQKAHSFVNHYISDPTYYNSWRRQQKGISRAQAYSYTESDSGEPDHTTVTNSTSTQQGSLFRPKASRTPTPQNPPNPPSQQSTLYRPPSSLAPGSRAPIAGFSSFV

The molecules below were run against BTN3A1-BirA(R118G)-HA (human) (UniProt O00481) (assay: proximity labelling).

| Molecule | binding |
| --- | --- |
| CARMIL1 (from UniProt Q5VZK9 1-1371) | binds |
| TANC1 (from UniProt Q9C0D5 1-1861) | binds |
| SYNJ2 (protein, UniProt O15056 1-1496) MALSKGLRLLGRLGAEGDCSVLLEARGRDDCLLFEAGTVATLAPEEKEVIKGQYGKLTDAYGCLGELRLKSGGTSLSFLVLVTGCTSVGRIPDAEIYKITATDFYPLQEEAKEEERLIALKKILSSGVFYFSWPNDGSRFDLTVRTQKQGDDSSEWGNSFFWNQLLHVPLRQHQVSCCDWLLKIICGVVTIRTVYASHKQAKACLVSRVSCERTGTRFHTRGVNDDGHVSNFVETEQMIYMDDGVSSFVQIRGSVPLFWEQPGLQVGSHHLRLHRGLEANAPAFDRHMVLLKEQYGQQVVVNLLGSRGGEEVLNRAFKKLLWASCHAGDTPMINFDFHQFAKGGKLEKLETLLRPQLKLHWEDFDVFTKGENVSPRFQKGTLRMNCLDCLDRTNTVQSFIALEVLHLQLKTLGLSSKPIVDRFVESFKAMWSLNGHSLSKVFTGSRALEGKAKVGKLKDGARSMSRTIQSNFFDGVKQEAIKLLLVGDVYGEEVADKGGMLLDSTALLVTPRILKAMTERQSEFTNFKRIRIAMGTWNVNGGKQFRSNVLRTAELTDWLLDSPQLSGATDSQDDSSPADIFAVGFEEMVELSAGNIVNASTTNKKMWGEQLQKAISRSHRYILLTSAQLVGVCLYIFVRPYHVPFIRDVAIDTVKTGMGGKAGNKGAVGIRFQFHSTSFCFICSHLTAGQSQVKERNEDYKEITQKLCFPMGRNVFSHDYVFWCGDFNYRIDLTYEEVFYFVKRQDWKKLLEFDQLQLQKSSGKIFKDFHEGAINFGPTYKYDVGSAAYDTSDKCRTPAWTDRVLWWRKKHPFDKTAGELNLLDSDLDVDTKVRHTWSPGALQYYGRAELQASDHRPVLAIVEVEVQEVDVGARERVFQEVSSFQGPLDATVVVNLQSPTLEEKNEFPEDLRTELMQTLGSYGTIVLVRINQGQMLVTFADSHSALSVLDVDGMKVKGRAVKIRPKTKDWLKGLREEIIRKRDSMAPVSPTANSCLLEENFDFTSLDYESEGDILEDDEDYLVDEFNQPGVSDSELGGDDLSDVPGPTALAPPSKSPALTKKKQHPTYKDDADLVELKRELEAVGEFRHRSPSRSLSVPNRPRPPQPPQRPPPPTGLMVKKSASDASISSGTHGQYSILQTARLLPGAPQQPPKARTGISKPYNVKQIKTTNAQEAEAAIRCLLEARGGASEEALSAVAPRDLEASSEPEPTPGAAKPETPQAPPLLPRRPPPRVPAIKKPTLRRTGKPLSPEEQFEQQTVHFTIGPPETSVEAPPVVTAPRVPPVPKPRTFQPGKAAERPSHRKPASDEAPPGAGASVPPPLEAPPLVPKVPPRRKKSAPAAFHLQVLQSNSQLLQGLTYNSSDSPSGHPPAAGTVFPQGDFLSTSSATSPDSDGTKAMKPEAAPLLGDYQDPFWNLLHHPKLLNNTWLSKSSDPLDSGTRSPKRDPIDPVSAGASAAKAELPPDHEHKTLGHWVTISDQEKRTALQVFDPLAKT | binds |

Results, then the molecule that gave them:

| binding | Molecule |
| --- | --- |
| binds | SDK2 (from UniProt Q58EX2 21-2172) |
| binds | PKP2 (protein, UniProt Q99959 1-881) MAAPGAPAEYGYIRTVLGQQILGQLDSSSLALPSEAKLKLAGSSGRGGQTVKSLRIQEQVQQTLARKGRSSVGNGNLHRTSSVPEYVYNLHLVENDFVGGRSPVPKTYDMLKAGTTATYEGRWGRGTAQYSSQKSVEERSLRHPLRRLEISPDSSPERAHYTHSDYQYSQRSQAGHTLHHQESRRAALLVPPRYARSEIVGVSRAGTTSRQRHFDTYHRQYQHGSVSDTVFDSIPANPALLTYPRPGTSRSMGNLLEKENYLTAGLTVGQVRPLVPLQPVTQNRASRSSWHQSSFHSTRTLREAGPSVAVDSSGRRAHLTVGQAAAGGSGNLLTERSTFTDSQLGNADMEMTLERAVSMLEADHMLPSRISAAATFIQHECFQKSEARKRVNQLRGILKLLQLLKVQNEDVQRAVCGALRNLVFEDNDNKLEVAELNGVPRLLQVLKQTRDLETKKQITDHTVNLRSRNGWPGAVAHACNPSTLGGQGGRITRSGVRDQPDQHGLLWNLSSNDKLKNLMITEALLTLTENIIIPFSGWPEGDYPKANGLLDFDIFYNVTGCLRNMSSAGADGRKAMRRCDGLIDSLVHYVRGTIADYQPDDKATENCVCILHNLSYQLEAELPEKYSQNIYIQNRNIQTDNNKSIGCFGSRSRKVKEQYQDVPMPEEKSNPKGVEWLWHSIVIRMYLSLIAKSVRNYTQEASLGALQNLTAGSGPMPTSVAQTVVQKESGLQHTRKMLHVGDPSVKKTAISLLRNLSRNLSLQNEIAKETLPDLVSIIPDTVPSTDLLIETTASACYTLNNIIQNSYQNARDLLNTGGIQKIMAISAGDAYASNKASKAASVLLYSLWAHTELHHAYKKAQFKKTDFVNSRTAKAYHSLKD |
| binds | PA2G4 (protein, UniProt Q9UQ80 1-394) MSGEDEQQEQTIAEDLVVTKYKMGGDIANRVLRSLVEASSSGVSVLSLCEKGDAMIMEETGKIFKKEKEMKKGIAFPTSISVNNCVCHFSPLKSDQDYILKEGDLVKIDLGVHVDGFIANVAHTFVVDVAQGTQVTGRKADVIKAAHLCAEAALRLVKPGNQNTQVTEAWNKVAHSFNCTPIEGMLSHQLKQHVIDGEKTIIQNPTDQQKKDHEKAEFEVHEVYAVDVLVSSGEGKAKDAGQRTTIYKRDPSKQYGLKMKTSRAFFSEVERRFDAMPFTLRAFEDEKKARMGVVECAKHELLQPFNVLYEKEGEFVAQFKFTVLLMPNGPMRITSGPFEPDLYKSEMEVQDAELKALLQSSASRKTQKKKKKKASKTAENATSGETLEENEAGD |
